These are yes or no findings as the source states them, for the method shown. In cells and extracts the contact can be indirect. Some binding calls cover weakened binding; strength is not graded here. For some of these results: Tags and fused reporters may be left off the sequences shown. One block for each molecule: values may come before it.
What was measured:
[1] = biological target: T1, Glc8^3HA (S. cerevisiae) (UniProt P41818); experiment: co-IP; yeast lysates; immunoprecipitation with pre-coupled anti-HA antibody (overnight, 4°C), IP buffer 50 mM Tris/HCl pH 7.5, 100 mM KCl, 5 mM MgCl2, NP-40, 10% glycerol; Western blot; for Glc8^3HA lysates of asynchronous or α-factor-arrested wild-type and shp1-7 cells
T1 sequence: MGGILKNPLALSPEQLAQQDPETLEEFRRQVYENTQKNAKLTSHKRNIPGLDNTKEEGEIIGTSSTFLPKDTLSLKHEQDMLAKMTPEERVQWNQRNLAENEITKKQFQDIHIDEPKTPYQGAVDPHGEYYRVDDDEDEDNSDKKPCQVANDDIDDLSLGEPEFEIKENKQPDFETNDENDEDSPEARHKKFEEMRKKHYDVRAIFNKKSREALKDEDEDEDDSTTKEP

[2] = biological target: T2, Sds22^3myc (S. cerevisiae) (UniProt P36047); experiment: co-IP; yeast lysates; immunoprecipitation with anti-myc antibody (overnight, 4°C, protein A sepharose), IP buffer 50 mM Tris/HCl pH 7.5, 100 mM KCl, 5 mM MgCl2, NP-40, 10% glycerol; Western blot; for Sds22^3myc lysates of wild-type and shp1-7 cells
T2 sequence: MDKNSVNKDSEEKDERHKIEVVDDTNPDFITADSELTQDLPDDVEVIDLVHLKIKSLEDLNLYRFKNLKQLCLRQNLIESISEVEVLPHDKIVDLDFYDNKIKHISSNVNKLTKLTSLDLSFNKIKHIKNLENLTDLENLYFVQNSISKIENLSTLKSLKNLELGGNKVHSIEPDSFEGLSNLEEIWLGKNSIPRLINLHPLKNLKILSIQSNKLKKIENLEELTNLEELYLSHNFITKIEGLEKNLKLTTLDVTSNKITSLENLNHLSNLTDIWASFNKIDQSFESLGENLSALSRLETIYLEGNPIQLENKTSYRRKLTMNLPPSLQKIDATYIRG

[3] = biological target: T3, Shp1^3HA (S. cerevisiae, UniProt P34223 1-423); experiment: co-IP; yeast lysates; immunoprecipitation with pre-coupled anti-HA antibody (overnight, 4°C), IP buffer 50 mM Tris/HCl pH 7.5, 100 mM KCl, 5 mM MgCl2, NP-40, 10% glycerol; Western blot; for Glc8^3HA lysates of asynchronous or α-factor-arrested wild-type and shp1-7 cells
T3 construct: Shp1 (Ubx1), S. cerevisiae; source: S. cerevisiae DF5, chromosomal fusion SHP1^3HA::klTRP1, endogenous expression level, in lysate
T3 sequence (looked up): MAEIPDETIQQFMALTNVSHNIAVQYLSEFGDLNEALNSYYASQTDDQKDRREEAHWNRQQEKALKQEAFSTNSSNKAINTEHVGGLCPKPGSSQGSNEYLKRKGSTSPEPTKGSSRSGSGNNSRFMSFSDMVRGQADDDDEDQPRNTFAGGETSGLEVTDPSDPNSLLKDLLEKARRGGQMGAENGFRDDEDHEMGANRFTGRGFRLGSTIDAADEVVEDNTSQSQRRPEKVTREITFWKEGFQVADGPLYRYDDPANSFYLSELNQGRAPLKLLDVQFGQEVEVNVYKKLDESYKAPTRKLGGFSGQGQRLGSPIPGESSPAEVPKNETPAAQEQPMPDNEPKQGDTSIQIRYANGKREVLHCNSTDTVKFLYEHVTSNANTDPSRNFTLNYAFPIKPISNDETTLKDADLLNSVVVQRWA

[4] = biological target: Glc7^3myc (S. cerevisiae) (UniProt P32598); experiment: co-IP; yeast lysates; immunoprecipitation with anti-myc antibody (overnight, 4°C, protein A sepharose), IP buffer 50 mM Tris/HCl pH 7.5, 100 mM KCl, 5 mM MgCl2, NP-40, 10% glycerol; Western blot; for Sds22^3myc lysates of wild-type and shp1-7 cells

binding [1]: binds
binding [2]: binds
Molecule: Glc7 (endogenous, untagged) (from UniProt P32598 1-312) (enzyme)

binding [3]: binds
B1: Glc7^3myc (enzyme, S. cerevisiae, UniProt P32598 1-312, looked up)
chain: MDSQPVDVDNIIDRLLEVRGSKPGQQVDLEENEIRYLCSKARSIFIKQPILLELEAPIKICGDIHGQYYDLLRLFEYGGFPPESNYLFLGDYVDRGKQSLETICLLLAYKIKYPENFFILRGNHECASINRIYGFYDECKRRYNIKLWKTFTDCFNCLPIAAIIDEKIFCMHGGLSPDLNSMEQIRRVMRPTDIPDVGLLCDLLWSDPDKDIVGWSENDRGVSFTFGPDVVNRFLQKQDMELICRAHQVVEDGYEFFSKRQLVTLFSAPNYCGEFDNAGAMMSVDESLLCSFQILKPAQKSLPRQAGGRKKK
notes: Glc7, catalytic subunit of protein phosphatase 1, S. cerevisiae; carboxyl-terminally tagged at its authentic chromosomal locus; also called PP1 catalytic subunit; source: S. cerevisiae DF5, expressed from the chromosomal GLC7 locus as sole source of Glc7, in lysate; not shown: 3myc, C-terminal, kept

binding [4]: binds
B2: Shp1^3HA (protein, UniProt P34223 1-423)
chain: MAEIPDETIQQFMALTNVSHNIAVQYLSEFGDLNEALNSYYASQTDDQKDRREEAHWNRQQEKALKQEAFSTNSSNKAINTEHVGGLCPKPGSSQGSNEYLKRKGSTSPEPTKGSSRSGSGNNSRFMSFSDMVRGQADDDDEDQPRNTFAGGETSGLEVTDPSDPNSLLKDLLEKARRGGQMGAENGFRDDEDHEMGANRFTGRGFRLGSTIDAADEVVEDNTSQSQRRPEKVTREITFWKEGFQVADGPLYRYDDPANSFYLSELNQGRAPLKLLDVQFGQEVEVNVYKKLDESYKAPTRKLGGFSGQGQRLGSPIPGESSPAEVPKNETPAAQEQPMPDNEPKQGDTSIQIRYANGKREVLHCNSTDTVKFLYEHVTSNANTDPSRNFTLNYAFPIKPISNDETTLKDADLLNSVVVQRWA
